Some of the results follow.
B1: il10ra_site1_sap_15_mot_HHH_b2_03038_000000109_0001_1_20_H_._HHH_b2_05569_0001_0000400030_0000002_0_0001 (protein)
chain: DEELVELARLLLEGDPRAAMELIHLYALIHQGDPEAERELEEAIKLAEELGDEDVVIILRALLEQ
B2: il10ra_site1_normal_mot_HHH_b2_08186_000000021_0001_43_56_H_._HHH_b2_01697_0001_0000200003_0000002_0 (protein)
chain: SSSSSSEEEEVREEVEELLERAQRVDREEAFRLLQEALRLAFEVSDPELLRAIWEVLRELSSSSS
B3: il10ra_site1_normal_mot_HHH_b1_04065_000000255_0001_41_56_H_._HHH_b1_08168_0001_0000100006_0000001_0 (protein)
chain: SSSSSEEEELEELLEQLEELARRGDERKFVELFVRVSRLALRARDEEIVRLLDRLAIEFYSSSSS
B4: il10ra_site1_normal_mot_HHH_b1_05357_000000034_0001_23_39_H_._HHH_b2_03643_0002_0000100007_0000001_0_af2pred_0001 (protein)
chain: SSSSSEEEELEKRLEEEIRRLIEEGNPEKARELIRELARLAAELKDKELAHLVIRLFALLDSSSS
B5: il10ra_site1_normal_mot_HHH_b2_03183_af2_000000055_0001_40_56_H_._ems_3hM_2680_0001_0000500016_0000002_0 (protein)
chain: SSDEKQKEAEELARAAARLVEQATDEKTKRALLLAIELLLRLADDEELRKILEEILEEAEELSSS
B6: il10ra_site1_normal_mot_HHH_b2_06497_000000202_0001_1_20_H_._HHH_b2_07580_0001_0000200006_0000001_0_af2pred_0001 (protein)
chain: SSSSSSSLNERARELLEEALKIEDEEEREEVLEEAKHLAEEGNNLILRIAIEFVAKDKSSSSSSS
B7: il10ra_site1_normal_mot_HHH_b1_05099_000000057_0001_40_58_H_._HHH_b1_00405_0001_0000200010_0000001_0 (protein)
chain: SSSSDEEEIEEIVEFAEEVAKEIPDEERRRALEAQARFVERLGDRDAAENLRRIAEAFLKSSSSS
B8: il10ra_site1_normal_mot_HHH_b1_00999_000000080_0001_41_55_H_._HHH_b2_05773_0001_0000500024_0000002_0 (protein)
chain: SSSSSSEEEERVKELNEEAEQITDPREFFEVLLEALRLAYELKNAELLREIWEIVQKFGSSSSSS
B9: il10ra_site1_normal_mot_HHH_b1_06994_000000193_0001_40_55_H_._HHH_b2_01218_0001_0000700034_0000002_0 (protein)
chain: SSSSSSNEEIAVELLLLAAKKIEDPELRRATLRLAEQIAKELGDEELKRLIEEVEEELSSSSSSS
B10: il10ra_site1_normal_mot_b26a303360aa2756ef5b79665ce52f45_0001_000000179_0001_1_11_H_._HHH_b1_08300_0001_0000100007_0000001_0_af2pred_0001 (protein)
chain: SSSSSKVEELVELIRKALELLRNGNPEEAQEVLEEAIKLAEEANNPVARVILELLFKQVNSSSSS
B11: il10ra_site1_normal_mot_HHH_b1_05088_af2_000000046_0001_20_36_H_._HHH_b2_02810_0001_0000400026_0000001_0 (protein)
chain: SSSSDEEVEEEVERLLEEAKQIEDAEEAYKALRKAIELAAENQDRELAELIMRVIQEWLNSSSSS
B12: il10ra_site1_normal_mot_HHH_b1_06837_000000150_0001_20_37_H_._HHH_b1_07718_0001_0000100001_0000002_0 (protein)
chain: SSSSSREISRRVYELLRRASELDLEGDPEEARELLEEAHELAEEGNNENALHNVEFLLRLASSSS
B13: il10ra_site1_sap_22_mot_HHH_b1_02665_000000293_0001_1_18_H_._5450ce7872ebe41ebd4d2ec004e2dcf6_0001_af2_0001_0000100001_0000001_1_0001 (protein)
chain: SSSSDEEKEALKLAAEALRAAYQKSDEEALQLLWRLIHALAREGDPELVEELEELAERIINSSSS
B14: il10ra_site1_normal_mot_HHH_b2_07579_000000275_0001_1_19_H_._HHH_b1_02421_0001_0000100004_0000001_0 (protein)
chain: SSSSSEEVQEVMEILREVAELLNNGDREEAERLAEEALRLAEEANNPVLRFAAEHLLRDVGSSSS
B15: il10ra_site1_normal_mot_HHH_b1_07835_af2_000000063_0001_1_16_H_._HHH_b1_06060_af2_0001_0000600040_0000001_0 (protein)
chain: SSSSSEEVQELLEELEELLEKNDEERFAQLFARIARRVYELRDEEAAEILIRLAAEFLELRSSSS
B16: il10ra_site1_sap_21_mot_HHH_b2_03328_af2_000000127_0001_1_19_H_._HHH_b2_05051_0001_0000300026_0000002_0_0001_af2pred_0001 (protein)
chain: SSSSSDEERLELALRIIEWAIEVGDEEAARFLIRAARELAERLGNEEILERLEELLERLNSSSSS
B17: il10ra_site1_normal_mot_8756ee2cf497b5429c717dfc0c0bcfd6_0001_000000186_0001_1_13_H_._HHH_b2_00413_0001_0000300015_0000001_0_af2pred_0001 (protein)
chain: SSSSSSDEVVRRVKELIEEALHIDDEEEAREVLEEALELAEEGNNAVLRAVLKYLLELLNSSSSS
B18: il10ra_site1_sap_15_mot_HHH_b2_00943_af2_000000149_0001_1_17_H_._HHH_b1_02213_af2_0001_0000400008_0000001_0_0001_af2pred_0001 (protein)
chain: SSSSDEEERRIEELEEEIERLRREGDRERLIRLLYEAFKIAVELDDEEALEFILRILRELLSSSS
B19: il10ra_site1_normal_mot_HHH_b2_07535_000000205_0001_20_36_H_._HHH_b1_08712_0001_0000100008_0000003_0 (protein)
chain: SSSSSSEEEEVRELLEEAERIPDPEERKRLLARAAYAAARAGDEELWQLVMEVYFRLSNSSSSSS
B20: il10ra_site1_sap_18_mot_HHH_b2_07521_000000141_0001_20_37_H_._HHH_b2_07925_0001_0000200019_0000002_0_0001 (protein)
chain: SSSSTVLERSVEFLLKAVEELLELGNEERARALLEALLRLLEEANDEELTQEVRELLEELSSSSS
B21: il10ra_site1_sap_20_mot_HHH_b1_05126_000000053_0001_38_52_H_._HHH_b2_05116_af2_0001_0000900047_0000001_0_0001 (protein)
chain: SSDEREELKEEVEEEVEKAVENKDPELVKEIIAKALMEAARLRDDQLSMAIIRIYARANQLLQSS
B22: il10ra_site1_normal_mot_HHH_b1_06348_000000162_0001_1_15_H_._HHH_b1_08757_0001_0000100002_0000002_0_af2pred_0001 (protein)
chain: SSSSSNAQELYELLRKAAELHFDGNPEEARRVLEEAEELAEEAGDLNLLAVIEYMLELARSSSSS
B23: il10ra_site1_sap_22_mot_HHH_b2_06812_af2_000000299_0001_41_56_H_._6b926b9cc833b1484481a9987f373d78_0001_0001_0000100001_0000002_0_0001 (protein)
chain: SSSSDVEEEVRRLIEEAEELLERGNPREAMKLIAEALQHALRAGNPELFQELWEIAKEIAKSSSS
B24: il10ra_site1_sap_14_mot_HHH_b2_05343_000000235_0001_19_35_H_._HHH_b2_05666_0001_0000600037_0000001_0_0001 (protein)
chain: SSSSDQEFYKAVEEAIEKAIKLEKNGNPEEAERLLEEILEKAEELGNWAARWSIRHLLELLSSSS
B25: il10ra_site1_normal_mot_HHH_b1_03094_000000294_0001_1_20_H_._HHH_b2_02427_0001_0000400035_0000001_0 (protein)
chain: SSSSSDREEVLELAILALRLALRGNPEEARKVLEEAFELAEELGSEQALRVIEELLRTLNSSSSS
B26: il10ra_site1_normal_mot_HHH_b1_01082_af2_000000031_0001_3_19_H_._HHH_b1_08661_af2_0001_0000300027_0000001_0 (protein)
chain: SSSSSEELYEFVKKVIEEAIELWENGNPEEAQKLVEEAIEYIEERNNVAAAFSLKHLRRVLSSSS
B27: il10ra_site1_sap_3_mot_HHH_b2_07848_af2_000000174_0001_23_38_H_._HHH_b1_05395_af2_0001_0000100004_0000001_0_0001 (protein)
chain: SSSSDEKEEVLELIKEAFHLLLRGDPEEAEKVLERAFEIVEELGDERAKRMLESLLEIVRSSSSS
B28: il10ra_site1_normal_mot_HHH_b2_06979_000000158_0001_42_57_H_._HHH_b1_03932_af2_0001_0000600026_0000001_0_af2pred_0001 (protein)
chain: SSSSDRRELIERAYELLKRAAKIEDEEEVEELLREARELAEEAGNELLAEAIKSRERQLLSSSSS
B29: il10ra_site1_normal_mot_HHH_b1_02397_af2_000000085_0001_39_57_H_._HHH_b1_05840_0001_0000300026_0000002_0 (protein)
chain: SSSSDEEQERLEELLEELEELTERGDDERFAEVALEALRLAFELRDEEVLQKLWELVRLVSSSSS
B30: il10ra_site1_sap_15_mot_HHH_b1_00456_000000263_0001_1_17_H_._HHH_b2_03790_0001_0000300014_0000001_0_0001 (protein)
chain: SSSSSDETQEVYELIKEALNIDDPEEAREVLEEAEEIARELGNWVLERAVEAAKRAIEASSSSSS
B31: il10ra_site1_normal_mot_HHH_b1_05056_000000217_0001_1_20_H_._HHH_b1_07850_0001_0000700022_0000001_1 (protein)
chain: SSSSSSDAEEIVEELLEEAEHIEDPRERAEVLQEATHHAIRAQNPELLQLVWKVVKRLSSSSSSS
B32: il10ra_site1_normal_mot_HHH_b2_00475_000000107_0001_44_57_H_._HHH_b2_01638_af2_0001_0000900052_0000002_0 (protein)
chain: SSSSEAEQRVAELLFRALRLLYEGNPEEAKEVVEEARRLAEENNDEELEEYVRILKHFIESHSSS
B33: il10ra_site1_normal_mot_HHH_b1_01011_000000096_0001_1_19_H_._HHH_b2_00319_0001_0000100004_0000002_0 (protein)
chain: SSSSSEEEEYLRLSLRFLEWAIKAGDKEAARRLIRAIEDFVERSNNEEAKEELERLEEELKSSSS
B34: il10ra_site1_sap_15_mot_HHH_b1_06798_000000292_0001_1_19_H_._HHH_b2_08144_0001_0000200006_0000001_0_0001_af2pred_0001 (protein)
chain: SSSSSEEEVLELARRVIEALKNGNPEEAEKLIEEIERLAEELNDPRVKAIARLLREALEHSSSSS
B35: il10ra_site1_normal_mot_8756ee2cf497b5429c717dfc0c0bcfd6_0001_000000186_0001_1_13_H_._HHH_b2_01636_af2_0001_0000400010_0000001_0 (protein)
chain: SSSSDLSQEVAELLERVAELDNRGDEEEARKLLEEAKELAEEANNDVLRFQVEYLERLLNSSSSS
B36: il10ra_site1_sap_23_mot_HHH_b1_08411_af2_000000053_0001_1_20_H_._HHH_b2_03761_0001_0000300018_0000001_0_0001 (protein)
chain: SSSSDEEVQEYVRLTLRFVRWLREAGDPEAAEFFLRAAKDMAKKANDPELEREIEEVEEEISSSS
B37: il10ra_site1_normal_mot_HHH_b1_06816_000000239_0001_1_19_H_._HHH_b2_02034_0001_0000300012_0000001_0_af2pred_0001 (protein)
chain: SSSSSSDLEEQAEELLEEVEKIDNPEERTEVARKAIKLAVRAGNPELAREISRTATKLSSSSSSS

These binders were tested against il10ra, Q13651 (assay: yeast display titration).

Apparent Kd, inactive:
B1 no binding seen
B2 no binding seen
B3 no binding seen
B4 no binding seen
B5 no binding seen
B6 no binding seen
B7 no binding seen
B8 no binding seen
B9 no binding seen
B10 no binding seen
B11 no binding seen
B12 no binding seen
B13 no binding seen
B14 no binding seen
B15 no binding seen
B16 no binding seen
B17 no binding seen
B18 no binding seen
B19 no binding seen
B20 no binding seen
B21 no binding seen
B22 no binding seen
B23 no binding seen
B24 no binding seen
B25 no binding seen
B26 no binding seen
B27 no binding seen
B28 no binding seen
B29 no binding seen
B30 no binding seen
B31 no binding seen
B32 no binding seen
B33 no binding seen
B34 no binding seen
B35 no binding seen
B36 no binding seen
B37 no binding seen

2 neighbouring records out of the list so far, quoted:
Apparent Kd, inactive:
B29 no binding seen
B30 no binding seen
